Library screening results

From ChEMBL document CHEMBL3988442, “University of Dundee, Small-Polar-MMV Screening Library” (2021).

Results are given as percent effect. How 0% and 100% were set is not recorded. Most values in the screen are low, and negative values occur. Compounds were drawn at random from those tested, without regard to their results. Two or more numbers in one place are separate tests of the same structure; such repeats can differ widely.

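Viability assay of Plasmodium falciparum sporozoites; the read-out is not stated. The concentration is filed as 10 mM, unlikely as a test dose, so the dose is not known. The record gives no direction; compounds that gave an IC50 in retests scored well above the rest, so higher reads as lower viability. Strong results were mostly tested again. Of about 34,000 compounds tested this way, about 280 (0.84%) reached 50% or more in at least one test.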

CCC(=O)NC1CCCN(C(=O)Nc2cccc(COC(C)C)c2)C1 (stereo not given) read 3.429%.
Cn1ccc(CN2CCC(CCc3ccc(O)cc3)CC2)cc1=O read -3.58%.
CNc1ncc(CN(C)Cc2cc(O)c3cc(F)ccc3n2)cn1 read -4.44%.
Cc1cc(NCCN)nc(-c2ccccc2O)n1 read -1.054% & 4.173%.
O=C(O)C(F)(F)F.[H][C@]12CCN(Cc3csc(C)n3)[C@@]1([H])C[C@H](C(=O)N1CCOCC1)O2 read 20.04%.
CC(C)Oc1ccc(CNC(=O)CCN2C(=O)CCC2=O)cc1F read -3.128%.
CN(CCSc1nncn1CC(F)(F)F)c1ccccc1 read -1.298%.
O=c1ccc(-c2cccs2)nn1CN1CCN(Cc2ccccc2)CC1 read 10.31%.
CCc1nnc2n1CCN(C(=O)c1ccc(C(F)(F)F)nc1C)C2 read -4.03%.
CC(C)NC(=O)N1CCN(CC2CC2)c2ncccc2C1.O=C(O)C(F)(F)F read 2.865%.
CN1CCC2(CC1)C(=O)N(CC1CC1)c1ccccc12.O=C(O)C(F)(F)F read 2.489%.
CN1CCN(CC2(O)CCCN(S(=O)(=O)c3cn[nH]c3)CC2)CC1 (stereo not given) read -20.73%.
CC(C)N(C)Cc1cn2c(n1)CN(C(=O)c1ccc[nH]1)CC2 read -6.1%.
CCN1CCN(C2CCN(Cc3nnc(C4CC4)o3)CC2)C1=O read 12.82%.
CCOc1ccc2nc(CN3CCOC(CN)C3)ccc2c1 (stereo not given) read -3.614%.
Cc1ccc(C(NC(=O)CCCN2CCCCC2)C(=O)O)cc1 (stereo not given) read 1.817%.
[H][C@]12CCN(c3ncccn3)C[C@]1(COC)CC[C@@H](N1CCOCC1)C2 read -4.886%.
NCCSc1nccc(-c2cnc(C3CC3)nc2-c2ccco2)n1 read 15.5%.
Cc1nc(CN2CCCC2c2noc(C3CC3)n2)oc1C (stereo not given) read 5.094%.
Cc1nc(C)n(CC2CCCN(Cc3cccc(C#N)c3)C2)n1 (stereo not given) read 6.72%.
CCc1ccccc1Nc1noc2c1CN(C(=O)c1ccn(C)n1)CC2 read 5.646%.
O=C(CCc1nccs1)N1CCCC(n2cccn2)C1 (stereo not given) read -13.7%.
CC(NC(=O)CNCCn1cccn1)c1ccc2c(c1)CCCC2 (stereo not given) read 15.04%.
Cc1ccc2c(n1)N(CCn1cccn1)CCN(CC1CC1)C2.O=C(O)C(F)(F)F.O=C(O)C(F)(F)F read -1.491%.
CCNc1cc2c(nn1)CCN(C(=O)Cc1ccc(C)nc1)C2 read 7.196%.
CC(C)CN1C(=O)c2ccc(C(=O)NCCc3c[nH]cn3)cc2C1=O read 0%.
O=C(CN1C=Nc2ccccc2S1(=O)=O)NCC1CC1 read -7.989%.
CC1c2ncc(CN3CCN(C)CC3)n2CCN1CC1CC1.O=C(O)C(F)(F)F.O=C(O)C(F)(F)F.O=C(O)C(F)(F)F (stereo not given) read -15.48%.
O=C(Cn1cc(Cl)cn1)NCCN1CCC(O)(c2ccc(F)cc2)CC1 read 23.18%.
Cn1cnnc1S(=O)(=O)C1CCN(S(=O)(=O)c2c(Cl)cccc2Cl)CC1 read -8.619%.
CC1c2ncc(COCC3CCOCC3)n2CCN1C(=O)c1ccco1 (stereo not given) read 2.433%.

2 of the entries, repeated:

compound,percent effect
Cn1ccc(CN2CCC(CCc3ccc(O)cc3)CC2)cc1=O,-3.58
O=c1ccc(-c2cccs2)nn1CN1CCN(Cc2ccccc2)CC1,10.31